These are yes or no findings as the source states them, for the method shown. Binding seen in cells or lysates may run through a third protein. A yes stands for co-enrichment or nearness to the bait. Other partners may have been found.
Legend:
HA-tagged PAX3 = HA-tagged PAX3 (UniProt P24610); test: affinity purification with mass spectrometry; immunoprecipitation of PAX3 from extracts of C2C12 cells transfected with HA-tagged Pax3; mass spectrometry
GST-PAX3 = GST-PAX3 (UniProt P24610); test: affinity purification with mass spectrometry; protein extracts of E10.5 wild type mouse limb buds incubated with GST-PAX3 protein, then immunoprecipitation with an anti-PAX3 antibody; mass spectrometry; only the target purified
[1] = target: BRAF (endogenous, mouse) (mouse (endogenous in E10.5 limb buds and C2C12)) (UniProt P28028); test: affinity purification with mass spectrometry; immunoprecipitation with an antibody against endogenous BRAF (Sepharose G beads) from RIPA extracts of E10.5 wild type mouse limb buds; SDS-PAGE, in-gel digestion, mass spectrometry
[2] = target: CA BRAF (V600E) (transfected, pEFm-V600E) (UniProt P15056); test: affinity purification with mass spectrometry; immunoprecipitation of BRAF from RIPA lysates of C2C12 cells transfected with CA Braf (V600E); SDS-PAGE, in-gel digestion, mass spectrometry

By UniProt entry, the sequences of proteins in these tests, tags left out. Where a name states a change or a piece, a line headed by the entry shows the natural chain unless it says otherwise.
UniProt P24610: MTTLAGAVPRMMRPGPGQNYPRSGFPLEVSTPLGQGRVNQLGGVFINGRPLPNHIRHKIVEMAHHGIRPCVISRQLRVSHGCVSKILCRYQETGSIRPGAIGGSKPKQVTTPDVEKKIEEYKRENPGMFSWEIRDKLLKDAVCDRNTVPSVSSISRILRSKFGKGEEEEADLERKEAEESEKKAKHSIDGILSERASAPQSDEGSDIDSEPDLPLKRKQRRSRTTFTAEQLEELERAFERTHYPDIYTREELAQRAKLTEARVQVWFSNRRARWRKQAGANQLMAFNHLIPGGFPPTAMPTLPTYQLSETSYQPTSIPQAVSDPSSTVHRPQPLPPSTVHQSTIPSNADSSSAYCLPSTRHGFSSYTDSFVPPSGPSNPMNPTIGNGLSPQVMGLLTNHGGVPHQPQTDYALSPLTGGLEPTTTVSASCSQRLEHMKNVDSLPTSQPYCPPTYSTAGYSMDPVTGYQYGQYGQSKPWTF
UniProt P28028: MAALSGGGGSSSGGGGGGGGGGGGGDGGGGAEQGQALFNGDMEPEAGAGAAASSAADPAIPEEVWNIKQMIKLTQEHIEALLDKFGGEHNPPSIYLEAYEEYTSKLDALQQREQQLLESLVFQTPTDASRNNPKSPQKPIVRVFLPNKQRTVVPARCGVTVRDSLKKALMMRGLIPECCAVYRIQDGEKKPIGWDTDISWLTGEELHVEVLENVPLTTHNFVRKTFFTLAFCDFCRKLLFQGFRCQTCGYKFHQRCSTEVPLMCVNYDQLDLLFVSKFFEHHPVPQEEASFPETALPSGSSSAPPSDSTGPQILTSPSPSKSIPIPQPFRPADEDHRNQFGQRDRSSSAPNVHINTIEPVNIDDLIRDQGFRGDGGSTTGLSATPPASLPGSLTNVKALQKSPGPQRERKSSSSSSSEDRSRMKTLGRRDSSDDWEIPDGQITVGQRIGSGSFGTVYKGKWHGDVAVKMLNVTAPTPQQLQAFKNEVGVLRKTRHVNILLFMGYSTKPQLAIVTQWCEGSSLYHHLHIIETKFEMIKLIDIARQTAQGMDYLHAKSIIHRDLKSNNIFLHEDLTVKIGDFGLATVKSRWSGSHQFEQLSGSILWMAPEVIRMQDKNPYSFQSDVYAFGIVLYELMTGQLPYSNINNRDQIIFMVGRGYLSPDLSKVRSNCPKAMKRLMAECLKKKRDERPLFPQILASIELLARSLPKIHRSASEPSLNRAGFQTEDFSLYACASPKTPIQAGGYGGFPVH
UniProt P15056: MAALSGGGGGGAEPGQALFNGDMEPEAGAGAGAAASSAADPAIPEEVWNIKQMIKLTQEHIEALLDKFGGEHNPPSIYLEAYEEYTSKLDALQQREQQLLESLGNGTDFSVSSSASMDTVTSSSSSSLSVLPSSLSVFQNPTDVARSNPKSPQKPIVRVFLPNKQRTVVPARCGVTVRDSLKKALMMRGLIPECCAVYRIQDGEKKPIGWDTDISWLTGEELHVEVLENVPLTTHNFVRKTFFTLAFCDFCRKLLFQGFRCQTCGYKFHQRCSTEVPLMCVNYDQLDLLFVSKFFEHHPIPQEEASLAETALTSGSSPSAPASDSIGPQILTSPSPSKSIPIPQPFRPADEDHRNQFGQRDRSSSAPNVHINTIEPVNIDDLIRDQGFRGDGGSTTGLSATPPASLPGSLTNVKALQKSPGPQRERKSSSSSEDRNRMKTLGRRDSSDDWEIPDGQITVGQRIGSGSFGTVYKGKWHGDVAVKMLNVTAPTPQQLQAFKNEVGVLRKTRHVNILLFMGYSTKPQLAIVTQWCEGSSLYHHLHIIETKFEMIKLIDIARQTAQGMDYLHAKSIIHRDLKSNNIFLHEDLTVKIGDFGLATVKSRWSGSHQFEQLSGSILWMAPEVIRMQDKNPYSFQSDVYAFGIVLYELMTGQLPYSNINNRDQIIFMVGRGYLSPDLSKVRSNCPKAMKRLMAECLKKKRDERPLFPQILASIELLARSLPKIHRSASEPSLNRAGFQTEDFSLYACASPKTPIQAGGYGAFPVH
UniProt P47239: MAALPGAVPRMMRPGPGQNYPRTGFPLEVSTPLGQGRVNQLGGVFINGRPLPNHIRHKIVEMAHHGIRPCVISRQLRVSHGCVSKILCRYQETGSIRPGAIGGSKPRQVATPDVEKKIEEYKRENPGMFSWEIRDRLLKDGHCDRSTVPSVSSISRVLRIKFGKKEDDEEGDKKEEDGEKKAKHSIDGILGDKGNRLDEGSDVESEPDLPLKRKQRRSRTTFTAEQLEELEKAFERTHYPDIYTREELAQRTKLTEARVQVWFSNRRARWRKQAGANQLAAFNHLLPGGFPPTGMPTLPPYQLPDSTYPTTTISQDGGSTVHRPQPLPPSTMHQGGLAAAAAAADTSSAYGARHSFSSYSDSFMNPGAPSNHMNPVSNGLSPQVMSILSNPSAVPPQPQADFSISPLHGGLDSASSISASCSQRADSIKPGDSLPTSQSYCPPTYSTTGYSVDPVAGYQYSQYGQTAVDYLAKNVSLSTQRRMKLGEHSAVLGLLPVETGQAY
UniProt P62331: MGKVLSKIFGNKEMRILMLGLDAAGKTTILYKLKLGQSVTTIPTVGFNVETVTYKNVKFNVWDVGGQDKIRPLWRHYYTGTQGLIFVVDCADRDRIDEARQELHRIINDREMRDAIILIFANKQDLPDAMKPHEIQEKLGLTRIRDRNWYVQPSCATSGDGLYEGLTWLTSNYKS
UniProt P84084: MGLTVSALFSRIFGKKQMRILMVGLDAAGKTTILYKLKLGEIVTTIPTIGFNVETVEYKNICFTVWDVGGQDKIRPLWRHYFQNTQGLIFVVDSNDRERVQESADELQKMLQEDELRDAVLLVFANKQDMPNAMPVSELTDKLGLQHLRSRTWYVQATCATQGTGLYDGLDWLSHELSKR

Row | Substance | binding (HA-tagged PAX3) | binding (GST-PAX3) | binding [1] | binding [2]
1 | BRAF (endogenous, mouse) (from UniProt P28028 1-751) (enzyme) | binds | binds |  | 
2 | PAX3 (endogenous, mouse) (from UniProt P24610 1-479) |  |  | binds | binds
3 | PAX7 (endogenous, mouse) (from UniProt P47239 1-503) |  |  | binds | binds

The remaining lines, values ahead:

Row | binding (HA-tagged PAX3) | binding (GST-PAX3) | binding [1] | binding [2] | Substance
4 | binds | binds |  |  | ARF6 (ADP ribosylation factor 6) (from UniProt P62331 1-175)
5 | binds | binds |  |  | ARF5 (from UniProt P84084 1-180)
